Experimental data: doi:10.1101/2020.11.08.373522

Sequences of proteins named here, by UniProt entry; tags and fusion partners are left off.
UniProt P06634: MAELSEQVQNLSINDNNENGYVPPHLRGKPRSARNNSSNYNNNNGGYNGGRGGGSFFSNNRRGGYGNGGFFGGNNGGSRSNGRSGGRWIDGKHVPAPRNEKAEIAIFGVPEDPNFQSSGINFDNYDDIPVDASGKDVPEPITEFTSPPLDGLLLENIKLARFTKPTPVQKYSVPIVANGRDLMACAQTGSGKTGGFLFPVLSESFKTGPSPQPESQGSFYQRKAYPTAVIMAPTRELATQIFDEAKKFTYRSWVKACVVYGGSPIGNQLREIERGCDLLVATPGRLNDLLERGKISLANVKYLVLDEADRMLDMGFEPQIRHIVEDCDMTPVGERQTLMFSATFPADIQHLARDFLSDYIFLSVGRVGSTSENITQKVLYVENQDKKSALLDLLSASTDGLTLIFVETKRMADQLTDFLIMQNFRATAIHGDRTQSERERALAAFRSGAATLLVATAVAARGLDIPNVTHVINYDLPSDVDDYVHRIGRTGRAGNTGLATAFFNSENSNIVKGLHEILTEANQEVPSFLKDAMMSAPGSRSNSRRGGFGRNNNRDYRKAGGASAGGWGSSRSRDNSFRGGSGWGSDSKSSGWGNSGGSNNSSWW

Target: Ded1 (DEAD-box RNA helicase Ded1) (S. cerevisiae (endogenous in yeast)) (UniProt P06634)
Assay: affinity purification with mass spectrometry

binding: binds
B1: SRP14 (endogenous) (protein, UniProt P38985 1-146)
chain: MANTGCLSPGAFLSKVPEFFQTANEKHITVRLTAKRLIEHDPVEGNLEFDSTNHPDYDVSKKASEISVSSRSDREYPLLIRMSYGSHDKKTKCSTVVKASELDQFWQEYSSVFKGGMQNLIKKKKKKSKNGTISKTGKKNKVAKKN

binding: binds
B2: Sec65 (endogenous) (protein, UniProt P29478 1-273)
chain: MPRLEEIDDFNDIDDLDMELAELDPSLRTPIAPKITPKVVRSQDQENPAFLPGTNNNSNSNNNSSNEKEQLSFINPKTGKVERSEAISKKDLEEVKRFQVLYPCYFDINRSHKEGRRVPKELAVENPLAKTMADAVRELGILCIFEGEKCHPQDFGNPGRIRVLFKENGQLIGAATKFKGGKRQLMKAVGEYMKRHPTTIESLREIPYGPDFDNIEFKKIPRVKGFKMNEIVPLHSPFLMGHPMTKSVYETPKITAAEKSFKPPKNKYKVVRR

binding: binds
B3: SRP21 (endogenous) (protein, UniProt P32342 1-167)
chain: MSVKPIDNYITNSVRLFEVNPSQTLFSISYKPPTQKTDTKVSFRTHNSHLSLNYKFTTNKSKDVSRLLSALGPRGVSITPGKIEKIAQSKKKNNKIKESSKKIKGKSIQDIVGLATLIVNTDVEKSDPAAKKTATEPKQKANAVQNNNGNSAASKKKKNKNKGKKKR

binding: binds
B4: SRP68 (endogenous) (protein, UniProt P38687 1-599)
chain: MVAYSPIIATYGNRAEQFLETDSDFAKYHAKLNKKLQHLRSRCHLVTKDTKKYSSKNKYGEINSEDYDNKTKLIGVLILLHAERDLALAETLKLRARQRGKLKKSEEKVLSTRLKKACKTADKLVNVTQNEQQWITRAQYLAFAKLVHSEYLINGKRFKRKDNAKISNNLALVFAALEHLKNLSLLAEEVVDNIVNKYQYSLKQYAGNLITTPEINNFIVERVQSDENKDDELVKLLLDNGFNMKKITTSTEDQKVTTNINWRSFNAKIIDAEVAQFLEQGLSIHPTQITQYTQRLSKLEKALDRHEFFIANHDDQDDIDEMVENSSENNQIILAYIKYNILLTSISRERDLFTHLWNQWLKLNTSLPSKLTKYKEMERIVKNLTKYLSDIMELPGVYSDDELLSQLDLCKLYFQLFLNTGCLSVLYQSKGRYMEALALYVDAYRRLENKLSEIESLDEILLPANLLSLNSVRSLQKRIENGGNSVITLAEYEKRNHGGSLGKYDLTVIEKLDSKKILPTDIQLKNLFPLKPKMLPIPSKPTLFDLAFNYITYDKQEPSASQVKDSVTETESISQTPISNEQTEGEPKKKRGFLGLFGR

No constants are given. Whether binding was seen depends on the method and setting. In cells and extracts the contact can be indirect. These calls come from enrichment with a bait or labelling near it, and not all partners need be listed. Each block holds one binder with its values, some of them ahead of it.
